Test results from PubChem BioAssay AID330 (DTP/NCI, 2004).
The list is a part of this screen's results and no random one: it gathers tests that were run many times, whatever their T/C, doses with no T/C, and many T/C values between a quarter and a half above the control. Other doses and runs of a compound stand elsewhere. T/C: endpoint of the treated group in % of that of the vehicle group. Some doses have a count of surviving animals in place of a T/C: the source holds a T/C of zero for them, seemingly a mark for toxic or unscored doses. Some survivor counts are full or nearly so, which does not show that the dose was tolerated: survival well below the control is almost never listed, so the zero probably covers shortened survival too. Counts of survivors are from the toxicity check (mostly the fifth day) where no day follows; animals may have died later. Schedules are NCI's codes, read here as Q, the interval in days (D) or hours (H), X, the number of doses. Some doses were run more than once; the results are listed from low to high. Where survival is the endpoint, the PubChem record calls one and a half times the control and up active, and a quarter to a half above the control has no call in these data; cut-offs in other NCI protocols can differ. Some T/C values are followed by the survivors on the day toxicity was checked, most often the fifth; where none is given, no animal had died by that day.

Tested on: P388 leukemia ip, CD2F1 mice, survival T/C
Test: NCI In Vivo Anticancer Drug Screen. Data for tumor model P388 Leukemia (intraperitoneal) in CD2F1 (CDF1) mice
Conditions: T/C endpoint: median survival time, higher T/C = longer survival
[1] = dose: 128.0 mg/kg/injection, schedule: Q01DX001 (ip), vehicle: saline

COc1cc([C@@H]2c3cc4c(cc3[C@@H](OC3OC5COC(C)OC5C(O)C3O)[C@H]3COC(=O)[C@H]23)OCO4)cc(OC)c1O (stereo partly drawn)
T/C (dose: 4.0 mg/kg/injection, schedule: Q01DX001 (ip), vehicle: water): 137 and 148 % of control | T/C (dose: 4.0 mg/kg/injection, schedule: Q01DX005 (ip), vehicle: saline): 185, 188, 192 [5 of 6 alive], 202 % of control | T/C (dose: 5.0 mg/kg/injection, schedule: Q04DX002 (ip), vehicle: suspension in saline): 139 % of control | T/C (dose: 5.0 mg/kg/injection, schedule: Q04DX003 (ip), vehicle: saline with Tween-80): 143 % of control | T/C (dose: 8.0 mg/kg/injection, schedule: Q01DX005 (ip), vehicle: saline): 221, 223, 237, 247 % of control | T/C (dose: 8.0 mg/kg/injection, schedule: Q04DX003 (ip), vehicle: saline, evaluated on day 9): 139 and 167 % of control | T/C (dose: 8.0 mg/kg/injection, schedule: Q04DX003 (ip), vehicle: saline, evaluated on day 10): 175 % of control | T/C (dose: 8.0 mg/kg/injection, schedule: Q04DX003 (ip), vehicle: saline, evaluated on day 30): 284 % of control | T/C (dose: 13.0 mg/kg/injection, schedule: Q04DX002 (ip), vehicle: water): 136 % of control | T/C (dose: 16.0 mg/kg/injection, schedule: Q01DX001 (ip), vehicle: saline with Tween-80): 109, 129, 141, 147, 183, 185, 203 % of control | T/C (dose: 16.0 mg/kg/injection, schedule: Q01DX001 (ip), vehicle: saline, evaluated on day 9): 112 [6 of 7 alive], 119, 123, 127, 129, 131, 145, 159, 182 % of control | T/C (dose: 16.0 mg/kg/injection, schedule: Q01DX001 (ip), vehicle: saline, evaluated on day 30): 228 % of control | T/C (dose: 16.0 mg/kg/injection, schedule: Q01DX001 (ip), vehicle: water): 134, 154, 183, 187, 199 % of control | T/C (dose: 16.0 mg/kg/injection, schedule: Q01DX005 (ip), vehicle: saline): 262, 265, 291, 319 % of control | survivor count (dose: 16.0 mg/kg/injection, schedule: Q01DX009 (ip), vehicle: saline): 10 of 10 and 6 of 6 | T/C (dose: 16.0 mg/kg/injection, schedule: Q04DX003 (ip), vehicle: saline, evaluated on day 9): 190 and 199 % of control | T/C (dose: 16.0 mg/kg/injection, schedule: Q04DX003 (ip), vehicle: saline, evaluated on day 10): 192 % of control | T/C (dose: 16.0 mg/kg/injection, schedule: Q04DX003 (ip), vehicle: saline, evaluated on day 30): 284 % of control | T/C (dose: 18.0 mg/kg/injection, schedule: Q04DX003 (ip), vehicle: saline, evaluated on day 10): 144 % of control | T/C (dose: 18.0 mg/kg/injection, schedule: Q04DX003 (ip), vehicle: saline, evaluated on day 44): 243 % of control | T/C (dose: 18.0 mg/kg/injection, schedule: Q04DX003 (ip), vehicle: saline, evaluated on day 45): 214, 223, 232, 287 % of control | T/C (dose: 18.0 mg/kg/injection, schedule: Q04DX003 (ip), vehicle: saline, evaluated on day 47): 166, 245, 271, 405 % of control | T/C (dose: 18.0 mg/kg/injection, schedule: Q04DX003 (ip), vehicle: saline, evaluated on day 60): 255, 256, 257, 261, 296, 517 % of control | T/C (dose: 27.0 mg/kg/injection, schedule: Q04DX003 (ip), vehicle: saline, evaluated on day 10): 187 % of control | T/C (dose: 27.0 mg/kg/injection, schedule: Q04DX003 (ip), vehicle: saline, evaluated on day 44): 396 % of control | T/C (dose: 27.0 mg/kg/injection, schedule: Q04DX003 (ip), vehicle: saline, evaluated on day 45): 204, 225, 270, 343 % of control | T/C (dose: 27.0 mg/kg/injection, schedule: Q04DX003 (ip), vehicle: saline, evaluated on day 47): 175, 255, 274, 405 % of control [8 of 10 alive] | T/C (dose: 27.0 mg/kg/injection, schedule: Q04DX003 (ip), vehicle: saline, evaluated on day 60): 229, 289, 517, 530, 540 [9 of 10 alive], 549 % of control | T/C (dose: 32.0 mg/kg/injection, schedule: Q01DX001 (ip), vehicle: saline with Tween-80): 125, 127, 155, 165, 198, 221, 222 % of control | T/C (dose: 32.0 mg/kg/injection, schedule: Q01DX001 (ip), vehicle: saline, evaluated on day 9): 117 [2 of 5 alive], 118, 125, 126, 129, 144 [6 of 7 alive], 156, 159, 194 % of control [6 of 7 alive] | T/C (dose: 32.0 mg/kg/injection, schedule: Q01DX001 (ip), vehicle: saline, evaluated on day 30): 260 % of control | T/C (dose: 32.0 mg/kg/injection, schedule: Q01DX001 (ip), vehicle: water): 111, 173, 192, 196, 244 % of control | T/C (dose: 32.0 mg/kg/injection, schedule: Q01DX005 (ip), vehicle: saline): 89, 91, 116, 265 % of control | survivor count (dose: 32.0 mg/kg/injection, schedule: Q01DX009 (ip), vehicle: saline): 6 of 6 | T/C (dose: 32.0 mg/kg/injection, schedule: Q04DX003 (ip), vehicle: saline, evaluated on day 9): 142 and 204 % of control | T/C (dose: 32.0 mg/kg/injection, schedule: Q04DX003 (ip), vehicle: saline, evaluated on day 10): 175 % of control | T/C (dose: 32.0 mg/kg/injection, schedule: Q04DX003 (ip), vehicle: saline, evaluated on day 30): 98 % of control | T/C (dose: 40.0 mg/kg/injection, schedule: Q04DX003 (ip), vehicle: saline, evaluated on day 10): 214 % of control | T/C (dose: 40.0 mg/kg/injection, schedule: Q04DX003 (ip), vehicle: saline, evaluated on day 44): 396 % of control | T/C (dose: 40.0 mg/kg/injection, schedule: Q04DX003 (ip), vehicle: saline, evaluated on day 45): 245 [9 of 10 alive], 362, 405, 441 % of control | T/C (dose: 40.0 mg/kg/injection, schedule: Q04DX003 (ip), vehicle: saline, evaluated on day 47): 182, 405 [8 of 10 alive], 412, 431 % of control | T/C (dose: 40.0 mg/kg/injection, schedule: Q04DX003 (ip), vehicle: saline, evaluated on day 60): 300, 324, 389, 517 [9 of 10 alive], 540, 555 % of control | survivor count (dose: 48.0 mg/kg/injection, schedule: Q04DX003 (ip), vehicle: clinical formulation): 7 of 8 | T/C (dose: 48.0 mg/kg/injection, schedule: Q04DX003 (ip), vehicle: water): 126 % of control [7 of 8 alive] | T/C (dose: 50.0 mg/kg/injection, schedule: Q04DX003 (ip), vehicle: water): 130 and 134 % of control | T/C (dose: 60.0 mg/kg/injection, schedule: Q04DX002 (ip), vehicle: Klucel (hydroxypropylcellulose) (HPC)): 128 % of control [7 of 8 alive] | T/C (dose: 64.0 mg/kg/injection, schedule: Q01DX001 (ip), vehicle: saline with Tween-80): 123, 143, 196, 222, 252, 261, 287 % of control | T/C (dose: 64.0 mg/kg/injection, schedule: Q01DX001 (ip), vehicle: saline, evaluated on day 9): 114, 126, 136, 140, 149, 183, 203 [6 of 7 alive], 206 [6 of 7 alive], 215 % of control | T/C (dose: 64.0 mg/kg/injection, schedule: Q01DX001 (ip), vehicle: saline, evaluated on day 30): 274 % of control | T/C (dose: 64.0 mg/kg/injection, schedule: Q01DX001 (ip), vehicle: water): 124, 179, 227 [8 of 9 alive], 245, 278 % of control | T/C (dose: 64.0 mg/kg/injection, schedule: Q04DX003 (ip), vehicle: saline, evaluated on day 9): 109 [4 of 6 alive] and 293 % of control | T/C (dose: 64.0 mg/kg/injection, schedule: Q04DX003 (ip), vehicle: saline, evaluated on day 10): 90 % of control [2 of 3 alive] | survivor count (dose: 64.0 mg/kg/injection, schedule: Q04DX003 (ip), vehicle: saline): 6 of 6 | survivor count (dose: 80.0 mg/kg/injection, schedule: Q04DX003 (ip), vehicle: clinical formulation): 6 of 8 | T/C (dose: 96.0 mg/kg/injection, schedule: Q01DX001 (ip), vehicle: saline with Tween-80): 95, 118, 122, 214, 255, 342 % of control | T/C (dose: 96.0 mg/kg/injection, schedule: Q01DX001 (ip), vehicle: water): 141 % of control | T/C (dose: 128.0 mg/kg/injection, schedule: Q01DX001 (ip), vehicle: saline with Tween-80): 145 % of control | T/C [1]: 109, 119 [4 of 6 alive], 152, 164, 172, 181, 236, 277 % of control [6 of 7 alive] | survivor count [1]: 5 of 6 | survivor count (dose: 128.0 mg/kg/injection, schedule: Q04DX003 (ip), vehicle: saline): 5 of 6 | survivor count (dose: 500.0 mg/kg/injection, schedule: Q04DX003 (oral), vehicle: clinical formulation): 1 of 5 | survivor count (dose: 1000.0 mg/kg/injection, schedule: Q04DX003 (oral), vehicle: clinical formulation): 0 of 5 | survivor count (dose: 1500.0 mg/kg/injection, schedule: Q04DX003 (oral), vehicle: clinical formulation): 0 of 5
